Measured values reported in PubChem BioAssay AID901 (National Center for Advancing Translational Sciences (NCATS), 2007).
The list shows a part of the results. Shown are side measurements of this screen, not its main read-out; they come without a call. The list favours compounds with an active or inconclusive main result. Words in brackets tell the shape of the fitted curve; partial curves, single points and poor fits give uncertain potencies.

Test: qHTS Assay for Identifying the Cell-Membrane Permeable IMPase Inhibitors
Settings: CHO-M1 cells, IP1 accumulation, HTRF TR-FRET ratio; measured here: donor channel 620 nm AC50
With `COc1ccc2cc(/C=C/C(=O)c3ccco3)c(Cl)nc2c1` the AC50 was 20000 nM [falling, single point].
For `CNC(=O)c1ccccc1NC(=O)c1ccc(C)c(S(=O)(=O)N2CCCCC2)c1`, the AC50 was 5010 nM [rising, single point].
In the case of `CC(C)CCOc1ccc(Cl)cc1CN1CCOCC1`, the AC50 is reported as 631 nM [falling, full curve, poor fit].
With `O=C1CN(C(=O)COC(=O)Cc2ccsc2)c2ccccc2N1` the AC50 was 39.8 nM [falling, full curve].
With `O=C1c2ccccc2C(=O)N1CCN1CCc2ccccc21` the AC50 was 25.1 nM [rising, full curve, poor fit].
For `CC(=O)N1CCN(CC(=O)Nc2c(Cl)cc(Cl)cc2Cl)CC1`, the AC50 was 12600 nM [falling, partial curve].
In the case of `O=C(NCCN1CCCCC1)c1ccco1`, the AC50 is reported as 251 nM [falling, full curve].
With `COc1ccccc1-c1n[nH]c(=S)o1` the AC50 was 12600 nM [rising, partial curve].
For `O=C(c1ccc(C#CC2(O)CCCCC2)cc1)N1CCOCC1`, the AC50 was 12600 nM [falling, single point].
For `O=C(CSc1nnc(-c2cccs2)o1)NCC1CN(Cc2ccccc2)CCO1` (configuration not stated), the AC50 was 355 nM [falling, full curve, poor fit].
For `Cc1ccc(C)c(N2CCN(c3nc4ccc(C(=O)c5ccccc5)cc4n4cnnc34)CC2)c1`, the AC50 was 17800 nM [rising, partial curve, poor fit].
In the case of `O=C(Nc1c2c(nc3ccccc13)CCCC2)c1ccccc1Br`, the AC50 is reported as 35500 nM [rising, single point].
In the case of `CS(=O)(=O)N(Cc1ccccc1)c1ccc(C(=O)Nc2ccc(Cl)cc2)cc1`, the AC50 is reported as 10 nM [falling, full curve].
In the case of `COc1ccc(NC(=O)CSc2nnc(-c3ccccc3C)n2N)cc1`, the AC50 is reported as 79.4 nM [rising, full curve, poor fit].
In the case of `CC1(C)CC(=O)NC=C(c2ccccc2)C1`, the AC50 is reported as 31600 nM [falling, single point].
With `Cc1ccc(S(=O)(=O)c2cc3cc(Br)ccc3oc2=O)cc1` the AC50 was 5620 nM [rising, single point].
For `C1CCC2(CC1)OCC1(CO2)COC2(CCCCC2)OC1`, the AC50 was 355 nM [falling, partial curve, poor fit].
For `COC(=O)CNC(=O)c1c(C)cc(=O)oc1C`, the AC50 was 31600 nM [falling, single point].
With `Cc1ccc(NC(=O)CSC2=C(C#N)C(c3ccc4c(c3)OCO4)C3=C(CCCC3=O)N2)c(C)c1` (configuration not stated) the AC50 was 3.98 nM [rising, full curve, poor fit].
In the case of `O=c1[nH]cnc2c1oc1ccccc12`, the AC50 is reported as 63.1 nM [rising, full curve, poor fit].
In the case of `COCCN(C(=O)COc1ccc(Cl)cc1)c1nnc(-c2cccnc2)s1`, the AC50 is reported as 7080 nM [rising, partial curve].
With `O=C1NC(NS(=O)(=O)c2ccccc2)(C(F)(F)F)C(=O)N1Cc1cccnc1` (configuration not stated) the AC50 was 3980 nM [rising, full curve].
In the case of `CCOC(=O)c1ccc2c(c1)nc(SC/C(O)=C(\C#N)c1nc3ccccc3[nH]1)n2CC`, the AC50 is reported as 316 nM [falling, full curve].
In the case of `CCCn1c(CN(Cc2ccccc2)Cc2ccccc2)nc2c1c(=O)n(C)c(=O)n2C`, the AC50 is reported as 15800 nM [rising, single point].
In the case of `CCn1c(SCC(=O)Nc2sc(C)c(C)c2C#N)nnc1C(C)C`, the AC50 is reported as 15.8 nM [falling, full curve, poor fit].
For `CCOc1ccc(S(=O)(=O)N(CC(=O)Nc2ccc(OC)cc2OC)c2ccccc2)cc1`, the AC50 was 35500 nM [falling, single point].
In the case of `O=C(Nc1cccc(Cl)c1)N1CCN(Cc2ccccc2)CC1`, the AC50 is reported as 2510 nM [falling, partial curve, poor fit].
With `Cc1cc(OCC(O)CN2CCN(C)CC2)ccc1C(C)C` (configuration not stated) the AC50 was 251 nM [falling, full curve, poor fit].
With `CCOC(=O)c1nn(-c2ccccc2F)c(C)c1C(C)=O` the AC50 was 25100 nM [rising, single point].
In the case of `COc1cnn(-c2ccc(C)cc2)c(=O)c1SCc1ccccc1`, the AC50 is reported as 10000 nM [rising, partial curve].
With `Cc1ccccc1-c1n[nH]c(=S)o1` the AC50 was 12600 nM [rising, partial curve].
In the case of `CCOC(=O)c1ccc(N2C(=O)C(O)=C(C(C)=O)C2c2ccccc2)cc1` (configuration not stated), the AC50 is reported as 2000 nM [rising, partial curve].
With `CCN(CC)S(=O)(=O)c1cccc(-c2nnc(SCCCC(=O)c3ccccc3)o2)c1` the AC50 was 794 nM [rising, full curve, poor fit].
In the case of `Cc1ccc(N=c2oc3cc(O)ccc3cc2C(N)=O)cc1`, the AC50 is reported as 158 nM [falling, full curve, poor fit].
In the case of `Clc1ccc(C2=Nn3c(nnc3-c3n[nH]c4c3CCC4)SC2)cc1Cl`, the AC50 is reported as 794 nM [falling, full curve].
For `COc1ccc(-c2cc(C(F)F)n3ncc(C(=O)NCC4CCCO4)c3n2)cc1` (configuration not stated), the AC50 was 31600 nM [rising, single point].
In the case of `COc1ccc(Nc2nc3ccccc3n3cnnc23)cc1`, the AC50 is reported as 20000 nM [falling, partial curve].
With `CCc1cc2c(SCC(=O)C(C#N)=C3N(C)c4ccccc4N3C)ncnc2s1` the AC50 was 15800 nM [rising, single point].
With `COc1ccccc1N1CCN(C(=O)Oc2ccccc2)CC1` the AC50 was 12600 nM [falling, partial curve, poor fit].
With `CCc1ccc(-c2nc(NC(=O)c3ccc(OCC(=O)Nc4ccc(F)cc4)c(OC)c3)sc2C)cc1` the AC50 was 28200 nM [rising, single point].
In the case of `CSc1ccc(S(=O)(=O)N2CCCC2)cc1`, the AC50 is reported as 200 nM [falling, partial curve, poor fit].
In the case of `Cc1nnc(C)n1/N=C/c1ccccn1`, the AC50 is reported as 20000 nM [rising, single point].
With `CC(C)CCOC(=O)C1[C@H]2C(=O)N(Cc3cccs3)C[C@]23C=C[C@H]1O3` (some centres not stated) the AC50 was 398 nM [rising, full curve, poor fit].
In the case of `O=C(CC1c2ccccc2Oc2ccccc21)NCc1ccco1`, the AC50 is reported as 794 nM [rising, full curve].
In the case of `Cc1cccc2nc(CSCc3ccco3)cn12`, the AC50 is reported as 3980 nM [falling, single point].
For `CCN1CCN(c2nc(-c3cccs3)nc3ccccc23)CC1`, the AC50 was 50.1 nM [falling, partial curve].
In the case of `O=C(O)c1ccc(-n2nc(C(F)(F)F)c3c2-c2ccoc2CC3)cc1`, the AC50 is reported as 158 nM [falling, single point].
In the case of `Cc1cc(C)nc(-n2nc(C)c3c(=O)[nH]c(C(F)(F)F)nc32)n1`, the AC50 is reported as 794 nM [falling, partial curve, poor fit].
With `Cc1cc(NC(=O)COc2cccc3cccnc23)no1` the AC50 was 200 nM [falling, full curve].
For `Cc1ncc(CSc2nnnn2-c2ccccc2)c(N)n1`, the AC50 was 5620 nM [falling, single point].
With `Cc1c(Cl)cccc1NC(=O)Cn1cc(C(=O)C2CCCCC2)c2ccccc21` the AC50 was 5.01 nM [falling, full curve, poor fit].
With `Cc1ccc(NC(=O)c2ccc(OC(=O)COc3ccc(Cl)c(C)c3)cc2)cc1` the AC50 was 89.1 nM [rising, full curve, poor fit].
With `COc1ccc(OC)c(Nc2nc(-c3sc(NC(=O)CC(C)C)nc3C)cs2)c1` the AC50 was 3160 nM [falling, partial curve].
With `CC(=O)Nc1ccc(S(=O)(=O)N2CCN(C(=O)Cc3ccccc3)CC2)cc1` the AC50 was 501 nM [falling, full curve].
With `CCOCCCNC(=O)CN1C(=O)CSc2cc(S(=O)(=O)N3CCCCCC3)ccc21` the AC50 was 5010 nM [rising, partial curve].
With `CCOC(=O)C1CCCN(S(=O)(=O)c2ccc3c(c2)CCN3C(=O)CC)C1` (configuration not stated) the AC50 was 14100 nM [falling, partial curve, poor fit].
For `NC(=O)CSc1nnc(-c2cccnc2)n1CCc1ccccc1`, the AC50 was 31600 nM [rising, single point].
In the case of `Cc1cccc(CSC2=NCCN2C(=O)C2CC2)c1`, the AC50 is reported as 5.01 nM [falling, full curve, poor fit].
With `COc1ccc(-c2nnc(SCC(=O)c3cccs3)o2)c(OC)c1` the AC50 was 2000 nM [falling, full curve, poor fit].
In the case of `CCC(C)Nc1nc(SC(C(C)=O)C(C)=O)nc(N(C)C)n1` (configuration not stated), the AC50 is reported as 12600 nM [rising, partial curve].
In the case of `COC(=O)c1cccc(S(=O)(=O)N2CCC(NC(=O)NC34CC5CC(CC(C5)C3)C4)CC2)c1`, the AC50 is reported as 39.8 nM [rising, full curve, poor fit].
For `CCCCCSc1nnc2c(n1)OC(CC)Nc1ccc(Br)cc1-2` (configuration not stated), the AC50 was 11200 nM [falling, partial curve, poor fit].
In the case of `CCOC(=O)N1CCN(C(=O)Nc2sc3nc4n(c(=O)c3c2C)CCC(C)CC4)CC1` (configuration not stated), the AC50 is reported as 31.6 nM [falling, full curve, poor fit].
In the case of `O=C(c1ccc(Cl)cc1)c1ccc(CN2C(=O)c3ccccc3C2=O)o1`, the AC50 is reported as 15.8 nM [rising, full curve, poor fit].
For `Cc1ccc(OC(=O)c2cccc(C(=O)Oc3ccc(C)cc3)n2)cc1`, the AC50 was 200 nM [falling, full curve, poor fit].
In the case of `CCn1c(SCC(=O)Nc2sc3c(c2C#N)CCCC3)nnc1-c1ccncc1`, the AC50 is reported as 1000 nM [falling, full curve].
In the case of `C=CCSc1nnc(NC(=O)CSc2ccccn2)s1`, the AC50 is reported as 4.47 nM [falling, full curve, poor fit].
